Library screen at single concentrations

Measurements from “University of Dundee, Small-Polar-MMV Screening Library” (2021), ChEMBL document CHEMBL3988442.

A: 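Growth of Mycobacterium tuberculosis over 4 days (cholesterol / DPPC medium with tyloxapol); the read-out is not stated. Concentration: 50 µM. Direction is inferred from retests: higher values go with more growth inhibition. About 69,000 compounds were tested under these conditions; 0.54% (about 370) showed 50% or more at least once.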
B: 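Phenotypic screen: M. tuberculosis growth, glucose 7H9 medium, 3 days; the read-out is not stated. Tested at 50 µM. The record gives no direction; compounds that gave an IC50 in retests scored well above the rest, so higher reads as more growth inhibition. About 69,000 compounds were tested under these conditions; 1.1% (about 760) showed 50% or more at least once.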

The filed quantity is “Percent Effect” (%).
How 0% and 100% were set is not recorded. Most values in the screen are low, and negative values occur.
The compounds are a random part of those screened.
Two or more numbers in one place are separate tests of the same structure; such repeats can differ widely.

compound,A,B
Cc1cc(N2CCC(NC(=O)CCc3ccco3)CC2)nc(C)n1,4.641,5.099
CC(=O)N1CCCN(c2nccc(-c3c(C)nn(C)c3C)n2)CC1,-6.528 and 2.447,3.897
Cc1ccc(NC2CCN(C(=O)COc3cccc(F)c3)CC2)nn1,-77.97,-40.07
Cn1cc(-c2cnc(-c3ccnn3C)nc2)cc1C(=O)N1CCCC1,12.99,5.179
COc1ccc(CNC(=O)CCn2cc(C)cn2)cc1C,-8.566 and -8.46,-14.18
CNS(=O)(=O)CCCN1CCN(C(C)c2cccnc2)CC1 (centres undefined),-6.153,-19.97
COc1cccc(CNCC2CN(C)CCO2)c1 (centres undefined),16.9,-18.84 and 1.018
CC(=O)N1CCCC(c2ccnc(Nc3cnccn3)c2)C1 (centres undefined),-2.55 and 5.181,-7.978
COCCC(=O)N1CCCC1c1nc(O)cc(C(C)C)n1 (centres undefined),-32.99,-17.37
CS(=O)(=O)N1CCC(NC(=O)COc2ccc3ccccc3c2)CC1,6.62,6.074
COc1ccc2c(c1)CN(CC(=O)NC1CCCC1)CC2,-7.296,6.126
CCCNC(=O)CSCc1ccc(S(=O)(=O)N(C)C)o1,6.731,10.62
CNc1nc(CNC(=O)Nc2cccc(F)c2)cs1,3.313,-1.553
CCn1ccnc1CN1CCN(CC(O)c2ccc(OC)cc2)CC1 (centres undefined),-16.01,-14.83
COCCC(=O)N1CC[C@@H](N(C)C)[C@@H]1Cc1ccccc1,-10.42,28.55
O=C(NC1(C(=O)O)CCCCC1)C1Cc2ccccc2O1 (centres undefined),3.254,7.164
COc1ccc(C(C(=O)O)N2CCC(Cn3cccn3)CC2)c(OC)n1 (centres undefined),-22.59,-26.33
CCc1ccc(OCCn2cccn2)cc1,-9.629,-17.46 and 21.66
O=C(Cn1ccc2ccc(Cl)cc21)NCc1ccc(C(=O)O)cc1,-6.084,16.82
[H][C@]12CC[C@]([H])(CN(c3nccc(N)n3)C1)N(CC1CCC1)C2=O,-12.51,-15.96
Nc1cc2c(nn1)CCN(C(=O)Cc1ccc3c(c1)CCO3)C2,-38.51,-46.88
COc1cc(-c2cnnc(NCC3CC3)n2)cc(OC)c1OC,7.418 and 2.417,-11.52
c1cncc(CN2CCCCC2c2ccc(Nc3cnccn3)nc2)c1 (centres undefined),13.31 and 20.12,21.62
COc1cc(NC(=O)NC2CCOCC2)ccc1N1CCOC1=O,-9.59,-9.983
Cc1nc(C)n(CC2CCCCN2CC(=O)N(C)Cc2ccco2)n1 (centres undefined),-6.808,-14.97
Cc1ccccc1C(NC(=O)Cn1cc(C2CC2)nn1)C1CC1 (centres undefined),-12.71 and -3,6.763 and -11.07
Cc1c(Cl)cccc1NC(=O)CN(Cc1cccnc1)C(C)C,-12.63,12.92 and -17.92
Cc1ccc(N2CC[C@H](O)[C@@H]2Cc2cnn(C)c2)nn1,-6.622 and -6.503,-25.49
CCN(C)c1ncnc2c1CCN(C(=O)[C@H]1CCCO1)CC2,3.129,1.829 and -1.395
Cc1cc(C(=O)NC(CC(C)C)C(=O)Nc2cc[nH]n2)c(C)o1 (centres undefined),4.559,15.82
N#Cc1ccccc1CN1CCC(c2nccn2CC2CCC2)CC1,9.776,13.31 and 2.508
CCc1cc2c(N3CCCC(c4ccn[nH]4)C3)ncnc2s1 (centres undefined),20.4 and 40.59,44.19
CC(C)NC(=O)N1CCC(n2ccc(C(F)(F)F)n2)CC1,5.432,-0.6949 and -4.02
O=C(O)C(F)(F)F.[H][C@@]12CCN(C(=O)c3cscn3)[C@@]1([H])CCN2C1CCOC1 (some centres undefined),-4.594,14.42
CCn1nc(C)c(CN2CCNCC2)c1C,10.01,31.87
CN(Cc1ccccc1O)CC1CCCN(CCc2ccc(Cl)cc2)C1 (centres undefined),-4.688,-1.822
Cc1ccc(CN(CCCn2ccnc2)Cc2cnn(C)c2)s1.O=C(O)CC(O)(CC(=O)O)C(=O)O,-21.88,24.54
O=C(O)C(F)(F)F.O=C(O)C(F)(F)F.[H][C@@]12CN(CCOC)CCO[C@]1([H])CN(Cc1cc(OC)cc(OC)c1)C2,-11.24,-4.462 and -32.76
Cc1ccc(C)c(S(=O)(=O)NC(=O)COc2cccc(C#N)c2)c1,-2.372,16.02
COc1ccc(NC(=O)CCN2CC=C(c3cnn(C)c3)CC2)cc1Cl,6.793,-12.87
OCCC1CN(c2ncnc3[nH]cnc23)CCN1Cc1cccs1 (centres undefined),3.698,36.95
OCCN(Cc1cccnc1)c1ncc(Br)cn1,3.956,2.243 and 7.573
O=S(=O)(c1cccnc1)N1CCC(OCCCc2ccccc2)C1 (centres undefined),-7.694,12.6 and 9.641
Cc1cc(NCC2CC(=O)Nc3ccccc32)nc(C)n1 (centres undefined),-3.978,24.63
COC(C)C(=O)N(CC(N)=O)Cc1cccc(Oc2ccccc2)c1 (centres undefined),12.03,26.11 and -1.355
Cc1cc(F)ccc1N1CCCC(NC(=O)CCCn2ccnc2)C1 (centres undefined),2.598,24.95
CCOc1ccnc(N2CCN(C(=O)c3ccn(C)c(=O)c3)CC2)n1,-2.966,1.365 and -2.483
CN1CCCC(C(=O)N2CCC(Oc3ccccn3)CC2)C1 (centres undefined),13.39,-0.4324 and 28.16
CCc1nnc2n1CCN(Cc1csc(-c3ccc(C)o3)n1)C2,-2.792,-15.07
COCc1cnc2n1CCN(C1CCC1)C2C.O=C(O)C(F)(F)F (centres undefined),1.003,-1.133 and -6.541
CCc1nc2n(n1)CC(NCc1nc(C)c(C)o1)CC2 (centres undefined),53.19,20.72
COc1ccc(N2CCN(Cc3nc(CSC)no3)C(C)C2=O)cc1 (centres undefined),-8.496,8.355
Cc1noc(C)c1C(=O)NCCSCc1cccs1,1.565,-11.28

For reference, 3 entries once more:

compound	A	B
CS(=O)(=O)N1CCC(NC(=O)COc2ccc3ccccc3c2)CC1	6.62	6.074
Cc1ccc(CN(CCCn2ccnc2)Cc2cnn(C)c2)s1.O=C(O)CC(O)(CC(=O)O)C(=O)O	-21.88	24.54
Cc1cc(N2CCC(NC(=O)CCc3ccco3)CC2)nc(C)n1	4.641	5.099